Experimental findings from article doi:10.1101/786475 are described below.

Chains of the proteins cited; added tags and fusions are not shown.
UniProt P27705: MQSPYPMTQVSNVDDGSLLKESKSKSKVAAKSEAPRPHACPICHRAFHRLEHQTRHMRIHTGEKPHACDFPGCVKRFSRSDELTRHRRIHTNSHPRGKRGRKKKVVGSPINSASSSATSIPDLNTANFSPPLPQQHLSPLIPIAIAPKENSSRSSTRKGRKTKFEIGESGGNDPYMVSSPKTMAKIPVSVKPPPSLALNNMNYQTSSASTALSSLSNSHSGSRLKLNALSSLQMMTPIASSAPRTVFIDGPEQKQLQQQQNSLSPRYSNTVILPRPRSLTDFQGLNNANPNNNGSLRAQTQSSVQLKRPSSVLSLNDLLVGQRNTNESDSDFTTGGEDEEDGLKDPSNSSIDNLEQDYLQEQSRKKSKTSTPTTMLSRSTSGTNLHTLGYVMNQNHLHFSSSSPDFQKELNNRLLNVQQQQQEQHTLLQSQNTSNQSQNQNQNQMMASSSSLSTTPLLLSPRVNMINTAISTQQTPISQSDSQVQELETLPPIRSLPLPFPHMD
UniProt P53035: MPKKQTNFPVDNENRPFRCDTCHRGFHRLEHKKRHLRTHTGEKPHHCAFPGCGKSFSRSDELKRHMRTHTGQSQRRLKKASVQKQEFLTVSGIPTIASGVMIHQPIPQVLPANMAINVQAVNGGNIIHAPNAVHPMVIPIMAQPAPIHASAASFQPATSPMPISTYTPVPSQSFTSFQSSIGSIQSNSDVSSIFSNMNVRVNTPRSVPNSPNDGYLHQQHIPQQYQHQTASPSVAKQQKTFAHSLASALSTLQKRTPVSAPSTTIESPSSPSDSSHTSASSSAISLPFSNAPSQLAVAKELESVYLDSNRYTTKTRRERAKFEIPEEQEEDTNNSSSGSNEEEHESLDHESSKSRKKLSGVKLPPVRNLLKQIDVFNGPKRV

Results are given in words; binding and its absence hold for the method and conditions named. For some of these results: Binding seen in cells or lysates may run through a third protein. Some entries that bind do so weakly or less than the wild type. Sequences can lack the tags named with a protein.

The target in experiment [1] is T1, HIS-Msb2p^CYT immobilised on Talon beads (S. cerevisiae) (UniProt P32334).
T1 sequence: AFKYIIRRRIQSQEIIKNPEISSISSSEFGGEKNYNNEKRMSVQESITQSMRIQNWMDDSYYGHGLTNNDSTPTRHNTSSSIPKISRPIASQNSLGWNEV
The experiment in a line: pull-down.

In experiment [2] the target is T2, Bem1p (spotted on the yeast ProtoArray) (S. cerevisiae) (UniProt P29366).
T2 sequence: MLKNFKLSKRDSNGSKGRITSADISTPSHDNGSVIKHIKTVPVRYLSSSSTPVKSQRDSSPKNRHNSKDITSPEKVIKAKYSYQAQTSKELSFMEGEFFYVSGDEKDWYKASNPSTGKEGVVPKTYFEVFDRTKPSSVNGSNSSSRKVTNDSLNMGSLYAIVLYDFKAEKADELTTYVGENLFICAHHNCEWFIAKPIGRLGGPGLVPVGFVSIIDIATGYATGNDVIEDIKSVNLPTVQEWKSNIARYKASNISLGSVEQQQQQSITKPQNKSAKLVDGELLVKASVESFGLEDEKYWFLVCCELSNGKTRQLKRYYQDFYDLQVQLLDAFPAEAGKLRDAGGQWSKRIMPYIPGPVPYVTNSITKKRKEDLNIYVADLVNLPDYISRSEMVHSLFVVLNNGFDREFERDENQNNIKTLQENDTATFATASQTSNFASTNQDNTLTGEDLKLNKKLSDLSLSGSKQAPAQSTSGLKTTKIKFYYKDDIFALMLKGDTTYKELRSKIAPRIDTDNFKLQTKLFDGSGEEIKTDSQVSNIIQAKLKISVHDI
In words: peptide or protein array.

Experiment [3] concerns the target T3, Hri1p (spotted on the yeast ProtoArray) (S. cerevisiae) (UniProt Q05905).
T3 sequence: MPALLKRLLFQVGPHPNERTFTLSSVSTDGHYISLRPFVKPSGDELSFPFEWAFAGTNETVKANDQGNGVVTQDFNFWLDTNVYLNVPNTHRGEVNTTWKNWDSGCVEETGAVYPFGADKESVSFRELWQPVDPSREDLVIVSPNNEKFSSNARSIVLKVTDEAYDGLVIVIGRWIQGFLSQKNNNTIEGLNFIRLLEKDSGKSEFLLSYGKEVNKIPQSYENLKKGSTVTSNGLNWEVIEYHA
In words: peptide or protein array.

Experiment [4] deals with T4, Mam33p (spotted on the yeast ProtoArray) (S. cerevisiae) (UniProt P40513).
T4 sequence: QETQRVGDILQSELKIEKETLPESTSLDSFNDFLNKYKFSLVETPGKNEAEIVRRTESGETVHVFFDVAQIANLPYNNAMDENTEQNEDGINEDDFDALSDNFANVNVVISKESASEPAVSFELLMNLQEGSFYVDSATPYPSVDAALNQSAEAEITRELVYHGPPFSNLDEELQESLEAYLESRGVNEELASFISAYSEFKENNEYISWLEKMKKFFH
In words: peptide or protein array.

Experiment [5] has as its target Mig1p (spotted on the yeast ProtoArray) (S. cerevisiae) (UniProt P27705). In words: peptide or protein array.
Experiment [6] concerns the target Mig2p (spotted on the yeast ProtoArray) (S. cerevisiae) (UniProt P53035). In words: peptide or protein array.

B1: Cap2p-TAP (protein, UniProt P13517 1-287)
chain: MSDAQFDAALDLLRRLNPTTLQENLNNLIELQPNLAQDLLSSVDVPLSTQKDSADSNREYLCCDYNRDIDSFRSPWSNTYYPELSPKDLQDSPFPSAPLRKLEILANDSFDVYRDLYYEGGISSVYLWDLNEEDFNGHDFAGVVLFKKNQSDHSNWDSIHVFEVTTSPSSPDSFNYRVTTTIILHLDKTKTDQNSHMMLSGNLTRQTEKDIAIDMSRPLDVIFTSHVANLGSLIEDIESQMRNLLETVYFEKTRDIFHQTKNAAIASSAEEANKDAQAEVIRGLQSL
Regarding B1, the binding entry in experiment [1] is listed as “binds”.

B2: Gln1p-GFP (enzyme, UniProt P32288 1-370)
chain: MAEASIEKTQILQKYLELDQRGRIIAEYVWIDGTGNLRSKGRTLKKRITSIDQLPEWNFDGSSTNQAPGHDSDIYLKPVAYYPDPFRRGDNIVVLAACYNNDGTPNKFNHRHEAAKLFAAHKDEEIWFGLEQEYTLFDMYDDVYGWPKGGYPAPQGPYYCGVGAGKVYARDMIEAHYRACLYAGLEISGINAEVMPSQWEFQVGPCTGIDMGDQLWMARYFLHRVAEEFGIKISFHPKPLKGDWNGAGCHTNVSTKEMRQPGGMKYIEQAIEKLSKRHAEHIKLYGSDNDMRLTGRHETASMTAFSSGVANRGSSIRIPRSVAKEGYGYFEDRRPASNIDPYLVTGIMCETVCGAIDNADMTKEFERESS
Regarding B2, the binding entry in experiment [1] is recorded as “binds”.

B3: purified and biotinylated cytoplasmic domain of the Msb2p protein (HIS-Msb2p^CYT) (domain or fragment, UniProt P32334 1207-1306)
chain: AFKYIIRRRIQSQEIIKNPEISSISSSEFGGEKNYNNEKRMSVQESITQSMRIQNWMDDSYYGHGLTNNDSTPTRHNTSSSIPKISRPIASQNSLGWNEV
modifications: biotinylated in vitro (sites not given)
Take B3: the binding result in experiment [2] was “no binding”; in experiment [3] it was “binds”; in experiment [4], “binds”; in experiment [5] it was “no binding”; in experiment [6], “no binding”.
